## Percent effect of library compounds

Amino acid sequences for entries named in this document (tags omitted). Residues count along the entry.
UniProt Q8IDJ8, 1-583: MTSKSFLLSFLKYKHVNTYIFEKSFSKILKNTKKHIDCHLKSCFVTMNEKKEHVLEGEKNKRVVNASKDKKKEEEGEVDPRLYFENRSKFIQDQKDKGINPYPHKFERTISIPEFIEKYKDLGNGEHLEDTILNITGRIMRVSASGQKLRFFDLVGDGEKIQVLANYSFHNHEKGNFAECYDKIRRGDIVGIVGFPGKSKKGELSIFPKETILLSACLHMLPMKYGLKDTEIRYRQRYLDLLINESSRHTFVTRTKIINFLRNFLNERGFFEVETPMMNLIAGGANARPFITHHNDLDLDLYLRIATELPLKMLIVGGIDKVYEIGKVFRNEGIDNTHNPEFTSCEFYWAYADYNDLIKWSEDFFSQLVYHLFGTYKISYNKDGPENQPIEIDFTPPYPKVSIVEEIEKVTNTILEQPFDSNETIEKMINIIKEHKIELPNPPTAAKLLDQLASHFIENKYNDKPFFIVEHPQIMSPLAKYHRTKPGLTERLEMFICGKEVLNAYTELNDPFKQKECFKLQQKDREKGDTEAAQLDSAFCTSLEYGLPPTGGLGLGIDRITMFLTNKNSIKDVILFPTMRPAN

The values are deposited in ChEMBL (CHEMBL3988442, “University of Dundee, Small-Polar-MMV Screening Library” (2021)).

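Enzyme assay of the cytosolic lysyl-tRNA synthetase in 384-well plates, read by luminescence. Target: Lysine-tRNA ligase, Plasmodium falciparum 3D7 (UniProt Q8IDJ8). Concentration: 30 µM. Higher reads as stronger inhibition, judged from the few compounds that gave an IC50. About 69,000 compounds were tested under these conditions; 0.071% (about 49) showed 50% or more at least once.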

The filed quantity is “Percent Effect” (%). The controls that fix the scale are not given in the record; negative values are as filed. The compounds are a random part of those screened.

| structure | effect |
|---|---|
| `c1ccc(Cc2noc(CN3CCCC3C3CCCCC3)n2)cc1` (centres unmarked) | -0.9441 |
| `Cc1cnn(CC2CCCCN2C(=O)Cc2c(C)nn(C)c2C)c1` (centres unmarked) | 0.4104 |
| `COCCc1noc(-c2cn(CCc3ccccc3)nn2)n1` | 3.453 |
| `Cc1n[nH]c(C)c1NC(=O)CCc1cccc(C2CCCN(C)C2)n1` (centres unmarked) | 3.757 |
| `CC(=O)N1CCN(CC(=O)NCCCN(C)c2ccccc2)CC1` | -0.3215 |
| `Cc1ccc(N2CC[C@H]3OCC[C@@]3(C(=O)N3CCCC3)C2)nn1` | 4.378 |
| `c1ccc(NCc2ccc(Cn3ccnc3)cc2)nc1` | 6.014 |
| `O=C(c1ccco1)N1CC[C@@H]2O[C@@H](COCC3CCOCC3)CC[C@@H]21` | -5.448 |
| `Cc1cnn(CCC(=O)NS(=O)(=O)N2CCc3ccccc32)c1` | 10.09 |
| `CS(=O)(=O)c1cc(Cl)cnc1C1CCN(C(=O)C2CC2)CC1` | -0.5552 |
| `CCN1CCc2c(c(COC)nn2C)C1` | 3.671 |
| `CN1CC[C@H]2OCC[C@@]2(C(=O)NCCc2ccccn2)C1` | 0.6898 |
| `CCN(CC)CCN1CC[C@H]2OCC[C@@]2(C(=O)N2CCOCC2)C1` | 1.368 |
| `CC(C)N1CCC(CC(=O)N(C)C(C)c2cncs2)CC1` (centres unmarked) | -1.073 |
| `CCc1nc(N2CCCC(CCCOC)C2)c2cnn(C)c2n1` (centres unmarked) | 1.602 |
| `CCOC(=O)[C@]12CCCN(Cc3ccco3)C[C@H]1CN(S(C)(=O)=O)C2` | 1.092 |
| `Cc1oncc1C(=O)NCc1cc(=O)n2c(n1)CN(C)CCC2` | 0.19 |
| `CC(C)N1C(=O)CN(CCCO)CC1(C)C` | 1.089 |
| `CCN(CC)S(=O)(=O)NC(C)C(=O)N(C)C` (centres unmarked) | 3.526 |
| `COCC(=O)N1CCC2(CCN(Cc3cccnc3)C2)CC1` | 3.311 |
| `Cc1csc(N2CCCN(C(=O)c3occc3C)CC2)n1` | 1.254 |
| `O=S(=O)(c1cccs1)N1CCCn2cnc(CO)c2C1` | 7.902 |
| `c1cncc(O[C@H]2COCCN(Cc3c[nH]c4ccccc34)C2)c1` | 8.06 |
| `COC(=O)c1cccc(CN(C)C(C)c2ccccn2)c1` (centres unmarked) | 5.412 |
| `CCN(CC(F)(F)F)C(=O)C1CCCN(Cc2ccccn2)C1` (centres unmarked) | 4.561 |
| `O=C1CC(NS(=O)(=O)c2ccccc2)CN1Cc1ccccc1` (centres unmarked) | 1.871 |
| `CCc1n[nH]c(C2CN(C(=O)c3cc4c(s3)CCCC4)CCO2)n1` (centres unmarked) | 0.6044 |
| `CN(C)S(=O)(=O)N1CCC(c2ccnc(Nc3ccccn3)n2)C1` (centres unmarked) | -1.465 |
| `Cc1ccc(CCC(=O)N(C)CCN2CCOCC2)c(C)c1` | -0.1277 |
| `COc1cccc(CN2CCCC2c2cncc(Nc3nncs3)n2)c1` (centres unmarked) | 2.383 |
| `Cc1nn(C)c(C)c1NC(=O)CN1CCCC1c1c(C)nn(C)c1C` (centres unmarked) | -0.09175 |
| `Cc1cc(NC(=O)NCC(CC(C)C)N2CCOCC2)n(C)n1` (centres unmarked) | -1.791 |
| `COC[C@H]1CC[C@H]2[C@H](CCN2C(=O)c2ccncc2F)O1` | 1.111 |
| `CCNC(=O)NC1CCCN(c2ccc(C)cc2)C1=O` (centres unmarked) | 4.061 |
| `COCCO[C@H]1CCN(C(=O)c2ccno2)[C@H]1Cc1cnn(C)c1` | 4.275 |
| `COC[C@@]12CC[C@@H](N3CCOCC3)C[C@H]1CCN(c1cnccn1)C2` | 6.542 |
| `CCn1c(C)nnc1CN(C)C1CCN(CCc2ccncc2)C1` (centres unmarked) | 3.522 |
| `Cn1cc(Cl)cc1C(=O)N1CCN(Cc2ccsc2)CC1` | 0.3032 |
| `O=C(Cc1ccccn1)N1CC[C@]2(C[C@@H](Oc3ncccc3F)CO2)C1` | 4.191 |
| `CC1=N[C@@]2(CC[C@@H]3CNC[C@@H]32)C(=O)N1CC(C)C` | -10.19 |
| `Cc1nc(N(C)Cc2cccc(O)c2)nc2cc(S(C)(=O)=O)ccc12` | 1.764 |
| `c1c[nH]c(-c2cn(CCSc3cnn[nH]3)nn2)n1` | 0.8823 |
| `CCN(Cc1ccccc1)C(=O)CCN1C[C@@H](C(=O)O)[C@H](C2CC2)C1` | -1.048 |
| `Cc1ccc(CN2CCN(C(=O)c3ccc(Br)o3)CC2)cc1` | -1.412 |
| `CN1CC(C(=O)NC(C)(C)CNC(=O)OC(C)(C)C)CC1=O` (centres unmarked) | -2.836 |
| `COc1ccc(C(=O)N2CCC(Oc3ccccc3)(C(=O)O)CC2)o1` | 0.3801 |
| `Cc1cccc(N(CC(=O)N2CCCCC2)Cc2nc(=O)[nH][nH]2)c1` | -4.373 |
| `O=C(c1cscn1)N1C[C@H]2CCCC(OCc3cccnc3)[C@H]2C1` (some centres unmarked) | 3.061 |
| `CC(NC(=O)N1CCC(c2ccccc2)CC1)c1nncn1C` (centres unmarked) | 1.952 |
| `COc1cc(F)c(S(=O)(=O)N2c3ncccc3NC(=O)C2C)cc1OC` (centres unmarked) | -0.0471 |
| `Cc1c(NC(=O)NC(C)CCO)cccc1OC1CCCC1` (centres unmarked) | 5.792 |
| `Cc1ccsc1[C@@H]1CCN(C(=O)CCC(=O)N2CCCCCC2)C[C@H]1O` | 9.604 |
| `CC(C)C(C(=O)N1CCC(Nc2cccnn2)CC1)n1cncn1` (centres unmarked) | 2.36 |
| `Cn1cc(CN2C[C@@H]3COC[C@H](C(=O)Nc4cccnc4)[C@@H]3C2)cn1` | 2.434 |
| `Cn1ccc(CN2CCCC23CCN(Cc2nccn2C)CC3)n1` | 5.035 |
| `CCc1ncncc1C(=O)Nc1ccc2ccn(CCN(C)C)c2c1` | 0 |
| `CCCS(=O)(=O)N1CCC2(CC1)CCn1c(-c3cnn(C)c3)cnc12` | 1.231 |
| `CC(C)COCCC(=O)Nc1cccnc1-n1cncn1` | 11.88 |
| `Cc1ccc(N2C[C@@H](CN3CCOCC3)[C@@H](CO)C2)nn1` | 3.732 |
| `Brc1ccc(NCCCOC2CCOCC2)nc1` | 4.46 |
| `COc1cccc(CN(Cc2ncc[nH]2)Cc2ccco2)c1` | 3.262 |
| `Clc1ccccc1C1CN(CCc2ccncc2)CCO1` (centres unmarked) | -4.37 |
| `CSc1ncccc1C(=O)NCc1ccc(CS(=O)(=O)NC(C)C)cc1` | -6.121 |
| `Cc1c(CN2CCCC(O)C2)[nH]c2ccc(F)cc12` (centres unmarked) | 1.245 |
| `CSCc1noc(CNC(=O)[C@H]2CNC[C@@H](C(=O)N3CCCC3)C2)n1` | 2.95 |
| `O=c1ccc2c(n1CCN1CCCC1)CCN(Cc1ccoc1)CC2` | 1.155 |
| `CCc1ccc(C(=O)N(CC)Cc2ccoc2)cc1S(C)(=O)=O` | 2.449 |
| `COc1cccc(CNCc2ccnc(N3CCOCC3)c2)c1OC` | 5.863 |
| `CSC1(CNC(=O)NCc2sccc2C)CCOCC1` | 8.593 |
| `Cc1cc(C(=O)N2CCCC(C(=O)c3nccn3C)C2)c(=O)[nH]c1C` (centres unmarked) | 5.404 |
| `Cc1cncc(C(=O)N2CCCCC2c2nc(C)cs2)c1` (centres unmarked) | 0.03478 |
| `N#Cc1cccc(N2CCCC(CO)(CCOc3ccccc3)C2)n1` (centres unmarked) | 1.462 |
| `O=C(O)c1csc(S(=O)(=O)N2CCCc3ccc(F)cc32)c1` | 8.254 |
| `Cc1nc(CN(C)C2CCCN(c3cccnn3)C2)nc2ccccc12` (centres unmarked) | 0.2897 |
| `CC(C)c1cc(NC(=O)CNC2CCCN(c3cccnn3)C2)on1` (centres unmarked) | -0.9092 |
| `Cc1ccc(N2CCCN(C(=O)C3CCCO3)CC2)nn1` (centres unmarked) | 2.213 |

Once more, the final 6:

| structure | effect |
|---|---|
| `Cc1cncc(C(=O)N2CCCCC2c2nc(C)cs2)c1` (centres unmarked) | 0.03478 |
| `N#Cc1cccc(N2CCCC(CO)(CCOc3ccccc3)C2)n1` (centres unmarked) | 1.462 |
| `O=C(O)c1csc(S(=O)(=O)N2CCCc3ccc(F)cc32)c1` | 8.254 |
| `Cc1nc(CN(C)C2CCCN(c3cccnn3)C2)nc2ccccc12` (centres unmarked) | 0.2897 |
| `CC(C)c1cc(NC(=O)CNC2CCCN(c3cccnn3)C2)on1` (centres unmarked) | -0.9092 |
| `Cc1ccc(N2CCCN(C(=O)C3CCCO3)CC2)nn1` (centres unmarked) | 2.213 |